# Measured values: the supplement of paper PMC3334620
# Over roughly 33,000 sequences, “E-score (-0.5 to 0.5)” has its median near -0.016; the highest 2% begin near 0.3. This is one part of the list.
# Target: T1, Yer184c (UniProt P39961)
# T1 sequence: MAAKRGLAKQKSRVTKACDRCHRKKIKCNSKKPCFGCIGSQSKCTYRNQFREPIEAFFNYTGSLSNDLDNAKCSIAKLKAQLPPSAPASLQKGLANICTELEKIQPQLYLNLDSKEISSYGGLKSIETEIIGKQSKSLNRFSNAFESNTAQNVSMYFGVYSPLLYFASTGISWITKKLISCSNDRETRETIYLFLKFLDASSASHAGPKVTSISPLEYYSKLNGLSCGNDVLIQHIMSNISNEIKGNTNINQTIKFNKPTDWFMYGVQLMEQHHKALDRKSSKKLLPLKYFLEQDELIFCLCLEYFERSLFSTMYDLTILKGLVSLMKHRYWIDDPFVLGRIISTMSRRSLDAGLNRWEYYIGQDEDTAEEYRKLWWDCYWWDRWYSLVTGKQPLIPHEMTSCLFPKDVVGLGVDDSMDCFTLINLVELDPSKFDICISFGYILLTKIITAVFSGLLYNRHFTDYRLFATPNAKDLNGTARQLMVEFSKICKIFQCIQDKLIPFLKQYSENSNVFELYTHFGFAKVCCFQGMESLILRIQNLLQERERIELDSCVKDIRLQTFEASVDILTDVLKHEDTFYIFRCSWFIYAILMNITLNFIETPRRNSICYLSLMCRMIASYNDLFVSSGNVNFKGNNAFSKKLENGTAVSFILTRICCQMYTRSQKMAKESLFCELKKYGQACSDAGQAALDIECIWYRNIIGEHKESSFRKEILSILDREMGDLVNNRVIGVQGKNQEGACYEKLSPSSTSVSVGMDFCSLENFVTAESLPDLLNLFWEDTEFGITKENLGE
# Assay: PBM E-score (8-mer binding enrichment) (E-score (-0.5 to 0.5)); higher = stronger / more preferred TF binding
# Conditions: protein concentration: 100 nM; construct: GST-full length
# In short: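 Universal all-10-mer Agilent arrays, double-stranded by primer extension on fresh or once-stripped slides, were probed with about 100-200 nM GST-tagged yeast transcription factors made by PURExpress. Fluorescent anti-GST detected bound protein, and masliner normalised the scans. E-scores from the Universal PBM Analysis Suite were given to each ungapped eight-base word pooled with its reverse complement.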
row,Sequence,PBM E-score
1,AACTACGG,0.00041
2,ACATACCT,-0.242
3,GCGATTCC,-0.0469
4,GTACTGAC,-0.0355
5,CTTACAAG,-0.202
6,AAATTTGA,0.176
7,CGGGCAGC,0.204
8,CACCCGCG,0.183
9,GCGGGTCA,0.0612
10,AGCCGTTA,0.239
11,CTAGTCAG,-0.168
12,GCCGCGGA,0.386
13,GAGACTAA,0.124
14,CAGAGTCA,-0.169
15,TATTCCCA,0.0619
16,AGATGGTC,-0.24
17,CGGATCCG,0.445
18,GGCCCTAA,0.0976
19,TATAGGGA,-0.0722
20,ACTCCCCA,-0.195
21,CGTAATCA,0.133
22,AGTGTCTA,0.183
23,CCGCCCCA,0.0116
24,CTTACTCC,0.00461
25,ATGGGTAA,0.119

row,Sequence,PBM E-score
1,GTGGCAAC,0.0181
2,CAACACCG,0.0665
3,CTATAGTC,-0.115
4,AAGAGTAA,0.0671
5,ACTTACAA,0.129
6,AACCGTAT,-0.212
7,ATTCCTCG,0.0775
8,CCTAAGGA,-0.0765
9,AGGCGACT,-0.1
10,CCCTATGC,-0.364
11,AGAAAGCG,-0.0479
12,ACTTCGGA,0.337
13,ACCGACCC,-0.0389
14,GAGCCCGA,0.0143
15,ACCGCAGT,-0.096
16,AAAAGGAC,0.0305
17,AACCACTG,0.0502
18,AAATGCCG,0.353
19,CCGAACCA,0.154
20,TCGGAGCA,0.212
21,AGCCCGCA,-0.159
22,ACCTGAGA,-0.123
23,CCCTCTAC,-0.263
24,AATGATTC,0.107
25,CAAACGGC,-0.0527

# Taken from above:
# In PBM E-score, CAAACGGC has -0.0527
# In PBM E-score, GTGGCAAC has 0.0181
# In PBM E-score, TATAGGGA has -0.0722
# In PBM E-score, CGTAATCA has 0.133

# Remaining list, next part:

row,Sequence,PBM E-score
1,CCTGTGAC,-0.223
2,ATTGAAGG,0.0279
3,AAGCTGAC,0.0973
4,CCGGCATC,0.322
5,GAGATTGC,-0.184
6,AGCGTAGC,-0.142
7,AATAGCGG,0.0178
8,GAGTATTA,0.0672
9,CTCCGCCC,0.012
10,CCTTCGTC,-0.0787
11,GCAGAGTA,0.0284
12,GGAAAAGA,0.0935
13,ATTACGGA,0.252
14,AGGATCTA,-0.166
15,GGCCGCAC,0.0332
16,TCGTAACA,0.0581
17,GATGTAAA,0.0689
18,AATCCCGT,0.189
19,TATGATCA,0.185
20,AGAGGTAA,-0.0922
21,GATCCGAA,0.375
22,AGGGAAAC,-0.0715
23,ATGGAACA,-0.0156
24,CCCTTAGC,-0.187
25,CACTAAAA,0.0457

row,Sequence,PBM E-score
1,CGTTAAAC,0.00583
2,GGCCGAAA,0.398
3,CTCCTTGC,-0.252
4,AACGAAGA,0.121
5,CCTATGGC,-0.19
6,AAACGGTC,0.0418
7,AGAATGGG,-0.133
8,GCCGCGCA,0.0353
9,ACTCAGGA,-0.0812
10,AAGATCGG,0.182
11,GCGGTAAC,0.199
12,AAAACGTG,-0.123
13,CTCACTGA,-0.106
14,GGGCAGAC,-0.114
15,CACCGGCC,0.177
16,GGCAGTGA,-0.151
17,AAAAGTTA,0.0959
18,ACTTTCGA,0.0448
19,GCGTACGC,0.00072
20,AATCGGCA,0.289
21,CAAAAGAG,-0.0784
22,CCTACAGG,-0.253
23,TCTTTCCA,-0.0543
24,CCAGCCCG,-0.115
25,AAAGGTAA,0.0263

row,Sequence,PBM E-score
1,ATAACAAG,0.209
2,CGATGGAC,0.113
3,AATTCAAC,0.226
4,CTCCGGAA,0.402
5,GACTACGC,-0.141
6,ACTATCCG,0.269
7,ATATTTGG,0.129
8,TAAACCAA,0.152
9,ATTTACTC,0.0684
10,AGCGTAAT,0.0454
11,CGGCTGCC,0.266
12,AGGATGTG,-0.0471
13,ACGGGCCG,0.135
14,GATTTAGC,0.0343
15,TCCAGTCA,-0.168
16,CCAACGGG,0.0016
17,CGGTATCA,0.177
18,GACGTCCC,-0.192
19,AGAACATG,0.0772
20,AGGTCGGA,0.0471
21,TGCTTAAA,0.148
22,GCCCTTCA,-0.0881
23,CATGTATC,-0.0608
24,ATTATGAG,0.00279
25,ATCCACAG,-0.118

# Reprinted at random: 2 entries already listed.
row,Sequence,PBM E-score
21,TGCTTAAA,0.148
24,ATTATGAG,0.00279

# Later entries.

row,Sequence,PBM E-score
1,AAAGTTGT,0.247
2,AACGAGGC,-0.216
3,AGTCTTCA,-0.0522
4,AGTAGGGG,-0.196
5,GGCTGTGA,-0.0945
6,GAGCAACC,-0.0388
7,ATTGAATA,0.24
8,ATTAGACG,-0.0239
9,CGAACGGC,0.255
10,GCATGACA,-0.014
11,CTTCGGCC,0.272
12,ATAGACAT,-0.0412
13,GGAGACCC,-0.284
14,GATTGCCA,-0.0755
15,AACCAAAT,0.113
16,CTGCGTTA,-0.121
17,ACTCGTCG,-0.179
18,TATTTTCA,0.209
19,TCTGGGAA,-0.0416
20,AGCTACCT,-0.0785
21,ATTGCGAG,-0.0585
22,AATCGACA,0.252
23,CACACCAA,0.0835
24,GCCACCAA,-0.0477
25,ATGTCATA,-0.0308

row,Sequence,PBM E-score
1,GTTCTAGA,0.159
2,CTGCTCCA,-0.0246
3,TCGTCGAA,-0.0345
4,AGCTTTTG,0.0231
5,CACTAGGG,-0.28
6,GGACACAC,-0.079
7,AGTACAAC,0.102
8,ACTCAGGG,-0.195
9,CGAGCGCG,0.0652
10,CCTAGTTC,-0.0645
11,CAATGCGG,0.103
12,AAGTATAG,-0.242
13,AGAGCGTG,-0.0685
14,CCATGACC,-0.346
15,AGCCGCGC,0.103
16,ACACAGGT,-0.289
17,ATAAGTAG,-0.0314
18,AGTGGGAC,-0.197
19,AGGTGGCC,-0.225
20,CACAAGGG,-0.272
21,ATGCGAAA,0.136
22,CTTATCTA,0.0972
23,GGCCCGCA,0.0681
24,CCTTCCAG,-0.246
25,AGATGCCA,-0.178

row,Sequence,PBM E-score
1,AATGAAGA,0.17
2,GAGTCTTA,-0.0926
3,GGTCTCCA,-0.118
4,AATTACGA,0.0132
5,CCTTGACG,-0.133
6,CGACGCAG,-0.0485
7,TCCCGTAA,0.192
8,AGAGAAAG,-0.0556
9,AACTGCAC,0.119
10,AACAGCTG,0.0223
11,GCTGAAGA,0.0275
12,CAGCTACC,-0.113
13,ATTGCTCA,0.147
14,CAATCCGG,0.316
15,ATTTGCTC,0.132
16,AGATTGTG,-0.0812
17,CACCTAAC,0.0534
18,CTGGTTTA,-0.126
19,TCTCGACA,0.00853
20,AGTACACA,0.0896
21,GCTTTCGA,-0.0696
22,CAACTGTA,-0.0664
23,CCACTTCG,-0.0424
24,ATTGTTTC,0.324
25,ATGTCAGG,-0.0372

row,Sequence,PBM E-score
1,CCCGAGGA,0.0175
2,AGCTGCCA,-0.0231
3,CAAACTAC,-0.187
4,GCTCCCAC,-0.104
5,CGTTCCGC,0.262
6,CCCACTTA,-0.0602
7,CGCAACAG,0.00982
8,CCAGATCG,-0.184
9,ATTTTCAA,0.204
10,ACATAGAA,-0.0408
11,AAGACAAA,0.0557
12,CAGCGGAC,0.0951
13,CACTAAAG,-0.00889
14,CTTTGATC,-0.0541
15,TAAAGGTA,0.0092
16,ATACCTCA,-0.149
17,ATTACAAC,0.0687
18,CTGGATTC,0.00297
19,ACTTCCTC,-0.122
